Laboratory results as given in patent US20110177063A1.
No constants are given. Whether binding was seen depends on the method and setting. Some entries that bind do so weakly or less than the wild type.

T1: mature human progastrin (human) (UniProt P01350)
T1 sequence: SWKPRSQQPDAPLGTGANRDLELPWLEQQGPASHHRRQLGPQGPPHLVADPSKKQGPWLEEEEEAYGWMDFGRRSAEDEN

B1: Anti-hPG MAb 3 (antibody, V domains shown)
VH: EVQLQQSGTVLARPGASVKMSCKASGYIFTSYWVHWVKQRPGQGLEWIGGFYPGNSDSRYNQKFKGKATLTAVTSASTAYMDLSSLTNEDSAVYFCTRRDSPQYWGQGTTLTVSS
VL: DVLMTQTPLSLPVSLGDQASISCRSSQSIVHSNGNTYLEWYLQKPGQSPKLLIYKVSNRFSGVPDRFSGSGSGTDFTLKISRLEAEDLGVYYCFQGSHVPFTFGGGTKLEIK
B2: Anti-hPG MAb 4 (antibody, V domains shown)
VH: QVQLQQSGAELMKPGASVKISCKATGYTFSSSWIEWLKQRPGHGLEWIGEFLPGSGSTDYNEKFKGKATFTADTSSDTAYMLLSSLTSEDSAVYYCATDGNYDWFAYWGQGTLVTVSA
VL: DLVMTQTPLSLPVSLGDQASISCRSSQSLVHSSGVTYLHWYLQKPGQSPKLLIYKVSNRFSGVPDRFSGSGSGTDFTLKISRVEAEDLGVYFCSQSTHVPPTFGSGTKLEIK
B3: Anti-hPG MAb 8 (antibody, V domains shown)
VH: EVQLVESGGGLVKPGGSLKLSCAASGFTFTTYAMSWVRQTPEKRLEWVATISSGGTYTYYPDSVKGRFTISRDNAKNALYLQMSSLRSEDTAMYYCATQGNYSLDFWGQGTSLTVSS
VL: DIVMTQAASSNPVTLGTSASISCRSSKSLRHTKGITFLYWYLQKPGQSPQLLIYQMSNLASGVPDRFSSSGSGTDFTLRISRVEAEDLGVYYCAQNLELPLTFGAGTKLELK
B4: Anti-hPG MAb 19 (antibody, V domains shown)
VH: DVQLQESGPGLVKPSQSLSLTCTVTGYSITSDYAWNWIRQFPGNKLEWMGYISFSGYTSYNPSLKSRISVTRDTSRNQFFLQLTSVTTEDTATYYCAREVNYGDSYHFDYWGQGTIVTVSS
VL: QLALTQSSSASFSLGASAKLTCTLSSQHRTYTIEWYQQQSLKPPKYVMEVKKDGSHSTGHGIPDRFSGSSSGADRYLSISNIQPEDEAIYICGVGDAIKGQSVFVFGGGTKVTVL

Columns and labels:
[1] = target: T1, mature human progastrin (human); assay: specificity, assay not named
[2] = target: T1, mature human progastrin (human); assay: stated in Example 15, assay not named
[3] = target: T1, mature human progastrin (human); assay: stated in Example 6, assay not named

| binding [1] | binding [2] | binding [3] | Binder |
| --- | --- | --- | --- |
| binds | – | – | B1 |
| binds | – | – | B2 |
| binds | binds | binds | B3 |
| binds | – | binds | B4 |
